Results: PubChem BioAssay AID540276 (National Center for Advancing Translational Sciences (NCATS), 2011)
Several values for one entry are separate records, joined by “and”; a condition that tells them apart may be missing. Identical values can stand only once. Screen size: about 300,000 compounds; about 5,400 (1.8%) were called active. The inconclusive results got no clear call from the source; some entries with a clear call stand among them for comparison. Calls come from the whole dose curve; tested in HEK293 cells. Where the call is inconclusive, the potency comes from a doubtful curve fit.

Experiment: qHTS for inhibitors of binding or entry into cells for Marburg Virus
Conditions: Marburg virus pseudotyped entry inhibition, cell reporter; activity change, negative = inhibition: at 37.8 µM (top of the series) unless noted
% is set by controls: 0 for no effect and ±100 for the full control effect; potency is the fitted concentration of half-maximal effect.

**Q.** For Cc1[nH]nc2c1C(c1cccs1)C1=C(CC(C)(C)CC1=O)N2 (stereo not given), which Potency is on record?
**A.** The Potency was inconclusive: 35.5 µM [inhibitor, single point].

**Q.** For Nc1ccc(Cc2ccc([N+](=O)[O-])cc2)cc1, which Potency is on record?
**A.** Its Potency is “inactive”.

**Q.** For Cc1noc(C)c1CSc1nc2ccccc2c(=O)n1-c1ccc(F)cc1F, which Potency is on record?
**A.** The Potency was inconclusive: 5.62 µM [inhibitor, single point].

**Q.** Which Potency does the source give for CCN(Cc1ccccc1)S(=O)(=O)c1cc(C(=O)NCC2CCCCC2)ccc1OC here?
**A.** The Potency was inconclusive: 2.24 µM [inhibitor, full curve, poor fit].

**Q.** Which Potency does the source give for C=CCN(C(=O)CCC(=O)Nc1cc(C)on1)C(C(=O)NC1CCCC1)c1ccc(OC)cc1OC (stereo not given) here?
**A.** Its Potency is “inactive”.

**Q.** For CCOC(=O)c1c(NC(=O)c2ccccc2N(C)S(=O)(=O)c2ccccc2)sc2c1CCCC2, which Potency is on record?
**A.** Its Potency is “inactive”.

**Q.** Which Potency does the source give for CC(C)Nc1oc(Cc2cccc3ccccc23)nc1C#N here?
**A.** The Potency was inconclusive: 0.447 µM [activator, partial curve, poor fit].

**Q.** For Cc1cccc(N2CCN(S(=O)(=O)c3cccs3)CC2)c1C, which Potency is on record?
**A.** Its Potency is inconclusive: 1 µM [inhibitor, partial curve, poor fit].

**Q.** With Cc1cc(Cl)n2ncc(-c3ccccc3)c2n1 as the compound, how does the Potency read?
**A.** Its Potency is inconclusive: 4.47 µM [activator, single point].

**Q.** For COc1ccc(C(=O)Nc2nc3cc(OC)c(OC)cc3c(=O)[nH]2)cc1, which Potency is on record?
**A.** Its Potency is inconclusive: 1.64 µM [inhibitor, partial curve, poor fit].

**Q.** Which activity change, negative = inhibition does the source give for O=C(COC(=O)c1ccc([N+](=O)[O-])s1)NCc1ccccc1 here?
**A.** Its activity change, negative = inhibition is inconclusive: 3.89% [activator].

**Q.** With COc1cc(N=c2c([N+](=O)[O-])nn(-c3ccc4c(c3)OCCO4)n2O)cc(OC)c1 as the compound, how does the Potency read?
**A.** Its Potency is inconclusive: 35.5 µM [inhibitor, single point].

**Q.** For O=C(O)c1cc(-c2ccccc2)on1, which Potency is on record?
**A.** Its Potency is “inactive”.

**Q.** For CCCc1nnc(NC(=O)c2cc(OC)cc(OC)c2)s1, which Potency is on record?
**A.** Its Potency is inconclusive: 4.11 µM [activator, partial curve, poor fit].

**Q.** With O=C(Nc1cccc(Cl)c1)c1ccncc1 as the compound, how does the Potency read?
**A.** Its Potency is “inactive”.

**Q.** Which Potency does the source give for O=C1/C(=C\c2ccc3c(c2)OCO3)CCC/C1=C/c1ccc2c(c1)OCO2 here?
**A.** Its Potency is “inactive”.

**Q.** Which Potency does the source give for COc1ccccc1NC(=O)C1=C(C)NC(=O)NC1c1cccs1 (stereo not given) here?
**A.** Its Potency is “inactive”.

**Q.** For CCCCc1c(O)nc(SCC(=O)NCCc2ccc(OC)c(OC)c2)[nH]c1=O, which Potency is on record?
**A.** Its Potency is inconclusive: 1.26 µM [inhibitor, single point].

**Q.** With S=c1[nH]nc(COc2ccc(Cl)cc2)n1-c1ccc(Cl)cc1 as the compound, how does the Potency read?
**A.** The Potency was inconclusive: 1.26 µM [activator, single point].

**Q.** Which Potency does the source give for CCC(c1nnnn1C1CCCC1)N(Cc1cccs1)Cc1cc2cccc(C)c2[nH]c1=O (stereo not given) here?
**A.** Its Potency is inconclusive: 10 µM [inhibitor, partial curve, poor fit].

**Q.** Which Potency does the source give for Cc1ccc(Cl)c(OCC(=O)Nc2ccc3c(c2)OCCO3)c1 here?
**A.** Its Potency is inconclusive: 29.1 µM [activator, single point].

**Q.** Which Potency does the source give for COc1ccc(N(C)S(=O)(=O)c2ccc3c(c2)n(C)c(=O)c(=O)n3C)cc1 here?
**A.** The Potency was “inactive”.

**Q.** With O=C(CNc1ccc(Cl)cc1)c1ccc(Br)cc1 as the compound, how does the Potency read?
**A.** Its Potency is “inactive”.

**Q.** For NC(=O)C1CCN(C(=O)COc2ccc3ccccc3c2Br)CC1, which Potency is on record?
**A.** The Potency was “inactive”.

**Q.** For CCOC(=O)N/N=C1\C[C@@H](O)[C@@H](O)[C@@H]2[C@@H]3C(=O)N(c4cccc(Oc5ccccc5)c4)C(=O)[C@@H]3CC[C@H]12, which Potency is on record?
**A.** The Potency was inconclusive: 2.37 µM [activator, partial curve, poor fit].

**Q.** For COc1ccc(NS(=O)(=O)c2ccc(C)c(NC(=O)c3ccc(C)c(S(=O)(=O)N4CCOCC4)c3)c2)cc1, which Potency is on record?
**A.** Its Potency is inconclusive: 0.891 µM [inhibitor, full curve, poor fit].

**Q.** For CC(C)=C1SC(N2CCN(Cc3ccccc3)CC2)=NC1=O, which Potency is on record?
**A.** Its Potency is inconclusive: 14.6 µM [activator, single point].

**Q.** With O=C(NC1CC1)C1CCN(C2CCN(C(=O)/C=C/c3cccs3)CC2)CC1 as the compound, how does the Potency read?
**A.** Its Potency is inconclusive: 6.31 µM [activator, single point].

**Q.** With CC(C)(C)c1ccc(OCC(=O)Nc2ccc(-c3nc4cccnc4o3)cc2)cc1 as the compound, how does the Potency read?
**A.** The Potency was “inactive”.

**Q.** With COc1ccc(OCC(=O)Nc2ccc(N3CCC(C)CC3)cc2)cc1 as the compound, how does the Potency read?
**A.** The Potency was inconclusive: 7.08 µM [inhibitor, partial curve, poor fit].

**Q.** Which Potency does the source give for COc1ccc(Cl)cc1NC(=O)CC(C)c1ccccc1 (stereo not given) here?
**A.** Its Potency is “inactive”.

**Q.** With COc1ccc(Cl)cc1C(=O)NCCc1ccc(S(=O)(=O)NC(=O)NC2CCCCC2)cc1 as the compound, how does the Potency read?
**A.** The Potency was “inactive and inconclusive: 16.4 µM [activator, single point]”.

**Q.** Which Potency does the source give for c1ccc(-c2nnc(-c3ccccn3)nc2NC2CCCCC2)cc1 here?
**A.** The Potency was active: 3.55 µM.

**Q.** With O=C(CN1CCN(S(=O)(=O)c2ccc(Br)cc2)CC1)N/N=C/c1cc([N+](=O)[O-])ccc1Cl as the compound, how does the Potency read?
**A.** The Potency was inconclusive: 11.2 µM [inhibitor, single point].

**Q.** With O=[N+]([O-])C(/C=C(/Cl)[N+](=O)[O-])=C(N1CCCCC1)N1CCCCC1 as the compound, how does the Potency read?
**A.** Its Potency is inconclusive: 2.24 µM [activator, partial curve, poor fit].

**Q.** Which Potency does the source give for CCN1CCOC(=O)C1CC(=O)Nc1cc(Cl)ccc1C (stereo not given) here?
**A.** Its Potency is “inactive”.

**Q.** For Cc1[nH]c2ccccc2c1/C=N/Nc1ccccc1[N+](=O)[O-], which Potency is on record?
**A.** The Potency was “inactive”.

**Q.** With Cc1ccc(C(C(=O)NC(C)(C)C)N(Cc2cccs2)C(=O)c2ccc3c(c2)OCCO3)cc1 (stereo not given) as the compound, how does the Potency read?
**A.** The Potency was inconclusive: 10 µM [inhibitor, partial curve, poor fit].

**Q.** For CCn1c(CNc2ccc(C)cc2C)nnc1SCC(=O)N1CCCc2ccccc21, which Potency is on record?
**A.** The Potency was inconclusive: 6.51 µM [inhibitor, single point].

**Q.** With COc1ccccc1CC(=O)N1CCN(c2ccccn2)CC1 as the compound, how does the Potency read?
**A.** The Potency was “inactive”.

**Q.** Which Potency does the source give for Cc1ccc(NC(=O)C2CCCN(c3ncnc4c3nc3n4CCCCC3)C2)cc1Cl (stereo not given) here?
**A.** The Potency was inconclusive: 35.5 µM [inhibitor, single point].

**Q.** With Cc1ccnc(NC(c2cccnc2)c2ccc3cccnc3c2O)c1 (stereo not given) as the compound, how does the Potency read?
**A.** The Potency was active: 8.91 µM.

**Q.** Which Potency does the source give for COC(=O)c1ccc(C(=O)OC)nc1 here?
**A.** The Potency was “inactive”.

**Q.** For O=C(CN1C(=O)COc2ccccc21)NCCN1CCC(Cc2ccccc2)CC1, which Potency is on record?
**A.** The Potency was “inactive”.

**Q.** Which Potency does the source give for COc1cc(/C=N/OCC(=O)NC23CC4CC(CC(C4)C2)C3)ccc1OCc1ccccc1 here?
**A.** Its Potency is “inactive”.
